Measurements reported in PubChem BioAssay AID652259 (Drosophila RNAi Screening Center, 2013).

- Aim: 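Genome-wide hunt for genes that control Wingless pathway activity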 (primary screen)
- Cells: Drosophila clone 8 imaginal disc epithelial cells
- Knock-down reagent: long dsRNA against Drosophila genes
- Treatment: pathway stimulated by co-transfected Wingless expression plasmid
- Measurement: 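Firefly luciferase from a tcf-site Wingless reporter, measured alongside co-transfected Renilla luciferase that tracks transfection; pathway stimulated by a Wingless plasmid; the firefly-to-Renilla ratio is not deposited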
- Reading the numbers: firefly reporter light: higher = more Wg reporter light, before normalisation; Renilla control light: higher = more transfected or surviving cells
- Call rule: 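a knock-down is a candidate when at least two out of four statistical tests show it departing from its plate mean; one test alone signals a weak candidate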
- Meaning of the calls: active = candidate regulator (raises or lowers reporter); inactive = not a candidate
In all, the deposit lists about 22,000 reagents; this is an unselected part of those that have a named target and a result. In the full data, 233 (1.1%) are marked active. 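Light values are raw, unnormalised plate reads; the ratio scores behind the reporter calls were not deposited.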 A plus sign joins genes that one reagent is predicted to hit. No sequences are given here. Not given: the amount of reagent, the time to read-out, the dose of the treatment.

predicted target | dsRNA | reporter change call, replicate 1 | firefly reporter light, replicate 1 | firefly reporter light, replicate 2 | Renilla control light, replicate 1 | Renilla control light, replicate 2 | Call
CG44251 | DRSC06856 | – | 5501 | – | 1280 | – | inactive
alphaTub67C (alpha-Tubulin at 67C) | DRSC11321 | – | 9235 | – | 2645 | – | inactive
psd (palisade) | DRSC03131 | – | 3443 | 8957 | 1040 | 2818 | inactive
retm (real-time) | DRSC03252 | – | 10422 | – | 4208 | – | inactive
Elal (Elastin-like) | DRSC16662 | – | 2192 | 8352 | 1120 | 3305 | inactive
spd-2 (spindle defective 2) | DRSC09682 | – | 2436 | – | 931 | – | inactive
CG1513 | DRSC05194 | – | 19572 | – | 7059 | – | inactive
CG1513 | DRSC06553 | – | 8145 | – | 1680 | – | inactive
CG1513 | DRSC06554 | – | 3529 | 8908 | 1260 | 3124 | inactive
shrb (shrub) | DRSC07061 | – | 12058 | – | 1625 | – | inactive
nis | DRSC00290 | – | 8628 | – | 4640 | – | inactive
CG15553 | DRSC15091 | – | 7344 | – | 3469 | – | inactive
CG5167 | DRSC15728 | – | 16912 | – | 3200 | – | inactive
CG32365 | DRSC10040 | – | 864 | 6582 | 844 | 2761 | inactive
CG32365 | DRSC10041 | – | 1558 | 5840 | 154 | 368 | inactive
CG32365 | DRSC10977 | – | 1121 | 5593 | 440 | 957 | inactive
Ktch (Ketchup) | DRSC15094 | – | 4370 | – | 2292 | – | inactive
CG16974 | DRSC02551 | – | 13283 | – | 4376 | – | inactive
ctrip (circadian trip) | DRSC12242 | – | 12375 | – | 3568 | – | inactive
ctrip (circadian trip) | DRSC12287 | – | 4300 | – | 1049 | – | inactive
ctrip (circadian trip) | DRSC22449 | – | 3.74e5 | 3.86e5 | 1.40e5 | 1.38e5 | inactive
disco (disconnected) | DRSC20323 | – | 22624 | – | 11761 | – | inactive
mRpL28 (mitochondrial ribosomal protein L28) | DRSC02724 | – | 3532 | 7497 | 828 | 2346 | inactive
Gbeta13F (G protein beta subunit 13F) | DRSC20247 | – | 1467 | 6202 | 627 | 1544 | inactive
CG42376 + cin | DRSC18752 | – | 2477 | 6485 | 845 | 1767 | inactive
eIF2Balpha (eukaryotic translation initiation factor 2B subunit alpha) | DRSC16332 | – | 2224 | 7323 | 1043 | 1936 | inactive

In a second layout: entries from further up
{"predicted target":"CG1513","dsRNA":"DRSC06554","firefly reporter light, replicate 1":3529,"firefly reporter light, replicate 2":8908,"Renilla control light, replicate 1":1260,"Renilla control light, replicate 2":3124,"Call":"inactive"}
{"predicted target":"shrb (shrub)","dsRNA":"DRSC07061","firefly reporter light, replicate 1":12058,"Renilla control light, replicate 1":1625,"Call":"inactive"}
{"predicted target":"nis","dsRNA":"DRSC00290","firefly reporter light, replicate 1":8628,"Renilla control light, replicate 1":4640,"Call":"inactive"}
{"predicted target":"CG15553","dsRNA":"DRSC15091","firefly reporter light, replicate 1":7344,"Renilla control light, replicate 1":3469,"Call":"inactive"}

Continued:
predicted target | dsRNA | reporter change call, replicate 1 | firefly reporter light, replicate 1 | firefly reporter light, replicate 2 | Renilla control light, replicate 1 | Renilla control light, replicate 2 | Call
Karybeta3 (Karyopherin beta 3) | DRSC12355 | – | 5079 | – | 1536 | – | inactive
CG8004 | DRSC10947 | – | 5372 | – | 2384 | – | inactive
Toll-6 | DRSC11304 | – | 6621 | – | 2950 | – | inactive
obst-E (obstructor-E) | DRSC02128 | – | 7956 | – | 3286 | – | inactive
Spn85F (Serpin 85F) | DRSC14545 | – | 2552 | – | 1139 | – | inactive
betaggt-I (beta subunit of type I geranylgeranyl transferase) | DRSC03494 | – | 2156 | 8100 | 923 | 2544 | inactive
GATAe | DRSC14223 | Wg reporter activity raised | 4628 | 12290 | 550 | 1819 | inactive
CG5568 | DRSC10518 | – | 8832 | – | 3717 | – | inactive
CG5568 | DRSC22816 | – | 4.58e5 | 5.18e5 | 1.93e5 | 2.44e5 | inactive
CG14294 | DRSC14774 | – | 14371 | – | 2027 | – | inactive
fd3F (forkhead domain 3F) | DRSC17843 | – | 18547 | – | 2953 | – | inactive
CG4199 | DRSC18519 | – | 2420 | 4241 | 887 | 2108 | inactive
CG4199 | DRSC21314 | – | 4.12e5 | 4.89e5 | 2.70e5 | 2.01e5 | inactive
Las (Lipoic acid synthase) | DRSC11772 | – | 5238 | – | 1236 | – | inactive
Synj (Synaptojanin) | DRSC04526 | – | 9392 | – | 2756 | – | inactive
rk (rickets) | DRSC03602 | – | 1914 | 6253 | 1130 | 3341 | inactive
CG7386 | DRSC10832 | – | 1740 | 7152 | 1212 | 3298 | inactive
CG14797 | DRSC17955 | – | 23988 | – | 12964 | – | inactive
clumsy | DRSC03111 | – | 3112 | 6368 | 1090 | 2570 | inactive
CG31562 (retired record) | DRSC12273 | – | 14217 | – | 4507 | – | inactive
CG31562 (retired record) | DRSC12274 | – | 17971 | – | 3833 | – | inactive
CG9837 | DRSC16573 | – | 14848 | – | 4599 | – | inactive
ave (aveugle) | DRSC05502 | – | 16954 | – | 13794 | – | inactive
